PubChem BioAssay AID1224830 – NIAID | 2016
In all, the deposit lists about 18,000 reagents; below is a part drawn at random. Over the whole deposit, about 2,900 (16%) were called active. 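Calls are made per well; low scores hint the gene aids the LPS response, high scores that it dampens it.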 Unmarked entries are inactive. Repeated entries: four replicate wells of each siRNA pool.

- Purpose: 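Regulators of TLR4 signalling towards TNF-alpha in macrophage-like cells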 (primary screen)
- Cells: human THP-1 monocytic leukaemia cells, TNF dual-luciferase reporter clone, PMA-differentiated to macrophage-like cells
- Reagents: siRNA pool against human genes, 50 nM
- Timing: LPS for 4 h, given about 3 days after siRNA transfection
- Treatment: bacterial LPS (TLR4 ligand), 10 ng/ml
- Detection: 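TNF firefly reporter luminescence divided by renilla, normalised to the plate median, then turned into a robust z-score for each replicate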
- Direction: TNF reporter robust z-score: higher = stronger TNF reporter response to LPS
- Call rule: 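Each well counts as active if its z-score is over 2.8 or under -1.5; controls are left without a call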

| gene | TNF reporter robust z-score |
| --- | --- |
| MORN4 | 1.48 |
| MORN4 | 0.77 |
| MORN4 | 1.02 |
| MORN4 | -0.01 |
| CHMP7 | -0.43 |
| CHMP7 | -0.04 |
| CHMP7 | -0.17 |
| CHMP7 | -0.33 |
| CFAP299 | -0.28 |
| CFAP299 | -0.68 |
| CFAP299 | -0.97 |
| CFAP299 | -0.33 |
| DEFB126 | 0.8 |
| DEFB126 | 1.76 |
| DEFB126 | 1.14 |
| DEFB126 | 1.63 |
| TMEM190 | 0.85 |
| TMEM190 | 1.64 |
| TMEM190 | -0.05 |
| TMEM190 | 0.53 |
| DPH6 | -1.16 |
| DPH6 | -1.4 |
| DPH6 | -1.13 |
| NEK5 | -0.35 |
| NEK5 | 1.01 |
| NEK5 | 1.88 |
| NEK5 | 2.2 |
| LINC02694 | -1.4 |
| LINC02694 | -0.24 |
| LINC02694 | -1.34 |
| LINC02694 | 0.41 |
| UBAP2 | 2.11 |
| UBAP2 | 2.28 |
| UBAP2 | -0.15 |
| UBAP2 | 0.76 |
| LRP1 | -1.18 |
| LRP1 | -1.48 |
| LRP1 | -0.7 |
| LRP1 | -1.29 |
| NAIF1 | -0.31 |
| NAIF1 | 0.21 |
| NAIF1 | -0.12 |
| NAIF1 | -0.04 |
| TENM2 | 0.7 |
| TENM2 | 2.12 |
| TENM2 | 0 |
| TENM2 | 2.64 |

Entries above whose gene name begins with C or c (8):
| gene | TNF reporter robust z-score |
| --- | --- |
| CHMP7 | -0.43 |
| CHMP7 | -0.04 |
| CHMP7 | -0.17 |
| CHMP7 | -0.33 |
| CFAP299 | -0.28 |
| CFAP299 | -0.68 |
| CFAP299 | -0.97 |
| CFAP299 | -0.33 |
